The list shows a part of the results.
Assays:
Experiment in all cases: log2 fold change, soluble protein after heating vs DMSO (PISA); higher = thermal stabilisation; K562 lysate, 10 uM; active = over 0.2 and 3.5 SD of the protein, either way, in both replicates (recomputed)
[1] = compound: NCC(=O)Nc1ccc(-n2nc(C(F)(F)F)cc2-c2ccc3c(ccc4ccccc43)c2)cc1
Outline: (§1)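 A 30 min treatment with 10 μM compound was applied to crude K562 extract at 1 mg/mL protein in PBS pH 7.4 with 1 mM MgCl2. Heating for 3 min spanned 48°C-58°C, after which aliquots were pooled, adjusted to 0.5% NP-40 at 4°C and spun at 21,000xg for 90 min. TMTpro 16plex LC-MS/MS of the supernatant, with channel sums equalised, gave values recorded as log-two fold change in thermal stability against solvent controls, from duplicates.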

Amino acid sequences for entries named in this document (tags omitted). A change or cut given only in a name is not applied to a line headed by its entry.
UniProt Q6IN84: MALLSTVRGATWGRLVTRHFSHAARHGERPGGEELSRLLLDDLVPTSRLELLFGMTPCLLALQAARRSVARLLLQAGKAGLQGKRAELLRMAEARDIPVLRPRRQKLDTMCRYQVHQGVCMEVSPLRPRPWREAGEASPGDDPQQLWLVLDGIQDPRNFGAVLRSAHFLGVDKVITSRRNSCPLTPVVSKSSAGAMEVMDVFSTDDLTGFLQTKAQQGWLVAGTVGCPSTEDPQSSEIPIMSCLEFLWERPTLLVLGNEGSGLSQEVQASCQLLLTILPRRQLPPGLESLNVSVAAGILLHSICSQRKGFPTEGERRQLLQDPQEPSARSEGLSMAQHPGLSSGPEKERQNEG
UniProt Q10469: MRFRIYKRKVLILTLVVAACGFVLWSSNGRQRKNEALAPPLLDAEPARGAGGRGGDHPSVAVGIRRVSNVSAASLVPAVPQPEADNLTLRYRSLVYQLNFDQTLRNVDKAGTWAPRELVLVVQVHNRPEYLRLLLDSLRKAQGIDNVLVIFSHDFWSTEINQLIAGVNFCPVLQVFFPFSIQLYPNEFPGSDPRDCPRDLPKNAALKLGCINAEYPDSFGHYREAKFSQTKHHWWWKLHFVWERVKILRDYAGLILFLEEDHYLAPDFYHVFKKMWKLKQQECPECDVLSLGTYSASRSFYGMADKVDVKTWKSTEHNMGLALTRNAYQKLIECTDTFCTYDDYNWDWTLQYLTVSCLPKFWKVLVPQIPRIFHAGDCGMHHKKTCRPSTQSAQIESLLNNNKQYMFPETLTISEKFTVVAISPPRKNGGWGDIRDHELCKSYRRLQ
UniProt Q13724: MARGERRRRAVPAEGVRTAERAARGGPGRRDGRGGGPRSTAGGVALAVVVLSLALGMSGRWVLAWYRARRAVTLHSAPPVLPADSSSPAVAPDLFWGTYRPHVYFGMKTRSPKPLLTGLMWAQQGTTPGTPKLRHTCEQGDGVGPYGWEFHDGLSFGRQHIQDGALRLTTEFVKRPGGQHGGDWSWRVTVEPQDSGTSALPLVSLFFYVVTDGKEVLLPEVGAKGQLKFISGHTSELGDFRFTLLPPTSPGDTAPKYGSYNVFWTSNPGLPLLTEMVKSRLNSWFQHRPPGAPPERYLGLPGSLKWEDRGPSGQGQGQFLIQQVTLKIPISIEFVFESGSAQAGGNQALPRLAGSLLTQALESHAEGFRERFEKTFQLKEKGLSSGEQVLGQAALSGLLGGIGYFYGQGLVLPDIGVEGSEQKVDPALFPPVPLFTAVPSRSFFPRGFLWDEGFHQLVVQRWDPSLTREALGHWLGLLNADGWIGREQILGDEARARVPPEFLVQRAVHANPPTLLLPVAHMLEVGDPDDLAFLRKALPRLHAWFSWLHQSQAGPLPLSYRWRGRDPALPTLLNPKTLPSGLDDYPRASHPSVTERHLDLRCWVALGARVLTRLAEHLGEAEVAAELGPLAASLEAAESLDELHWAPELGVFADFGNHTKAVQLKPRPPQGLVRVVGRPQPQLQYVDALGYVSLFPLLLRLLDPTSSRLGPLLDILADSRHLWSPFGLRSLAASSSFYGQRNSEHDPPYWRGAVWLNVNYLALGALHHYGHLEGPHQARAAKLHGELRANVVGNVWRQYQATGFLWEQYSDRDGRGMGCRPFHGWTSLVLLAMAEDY
UniProt Q9UQ53: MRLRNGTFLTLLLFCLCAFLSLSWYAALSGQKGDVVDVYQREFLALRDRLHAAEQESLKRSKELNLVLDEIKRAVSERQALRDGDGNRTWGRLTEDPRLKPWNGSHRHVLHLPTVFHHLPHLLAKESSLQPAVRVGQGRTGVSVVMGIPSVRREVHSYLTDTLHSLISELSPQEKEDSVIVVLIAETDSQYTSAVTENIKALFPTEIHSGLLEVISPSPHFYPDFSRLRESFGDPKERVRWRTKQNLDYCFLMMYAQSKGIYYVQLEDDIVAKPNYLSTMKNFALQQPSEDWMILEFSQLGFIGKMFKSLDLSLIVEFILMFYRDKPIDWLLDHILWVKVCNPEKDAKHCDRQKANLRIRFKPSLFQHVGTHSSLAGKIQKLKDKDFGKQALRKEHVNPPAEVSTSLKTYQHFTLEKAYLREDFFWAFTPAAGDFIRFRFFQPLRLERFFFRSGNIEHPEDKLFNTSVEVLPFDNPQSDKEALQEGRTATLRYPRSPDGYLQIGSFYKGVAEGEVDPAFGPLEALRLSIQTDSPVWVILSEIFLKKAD
UniProt Q15773: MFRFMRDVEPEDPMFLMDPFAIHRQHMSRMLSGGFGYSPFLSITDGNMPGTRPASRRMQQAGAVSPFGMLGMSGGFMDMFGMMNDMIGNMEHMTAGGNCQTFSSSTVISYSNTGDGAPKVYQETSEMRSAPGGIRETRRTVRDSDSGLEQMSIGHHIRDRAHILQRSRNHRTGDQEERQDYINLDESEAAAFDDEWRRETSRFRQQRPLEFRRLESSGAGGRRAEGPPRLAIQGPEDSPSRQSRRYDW
UniProt Q9UHC7: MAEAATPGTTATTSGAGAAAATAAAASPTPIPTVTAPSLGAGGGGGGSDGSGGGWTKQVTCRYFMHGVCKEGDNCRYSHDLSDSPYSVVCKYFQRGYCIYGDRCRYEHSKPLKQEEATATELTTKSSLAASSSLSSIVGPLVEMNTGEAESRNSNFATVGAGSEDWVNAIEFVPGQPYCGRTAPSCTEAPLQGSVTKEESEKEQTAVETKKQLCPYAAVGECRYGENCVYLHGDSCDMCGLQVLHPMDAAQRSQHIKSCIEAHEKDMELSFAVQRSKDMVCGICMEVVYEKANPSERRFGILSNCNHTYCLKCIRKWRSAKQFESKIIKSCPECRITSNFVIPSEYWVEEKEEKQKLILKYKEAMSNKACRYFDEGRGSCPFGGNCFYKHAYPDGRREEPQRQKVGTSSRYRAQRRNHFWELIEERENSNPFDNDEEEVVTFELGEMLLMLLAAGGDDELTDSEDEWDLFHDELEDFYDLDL

[2] = compound: O=C(CCCCCCC(=O)Nc1ccccc1)NO [vorinostat]
Outline: as §1

[3] = compound: O=C(O)c1ccc2c(c1)nc(Nc1cccc(Cl)c1)c1ccncc12 [silmitasertib]
Outline: as §1

[4] = compound: O=C1NC(=O)C(c2cnc3ccccn23)=C1c1cn2c3c(cc(F)cc13)CN(C(=O)N1CCCCC1)CC2
Outline: as §1

[5] = compound: c1cn2cc(-c3ccc4cn[nH]c4c3)nc(Nc3ccc(N4CCOCC4)cc3)c2n1 [entospletinib]
Outline: as §1

MRM1 (UniProt Q6IN84)
log2 fold change [1]: inactive: 0.012
log2 fold change [2]: inactive: -0.036
log2 fold change [3]: inactive: 0.086
log2 fold change [4]: inactive: 0.019
log2 fold change [5]: inactive: 0.047

MGAT2 (UniProt Q10469)
log2 fold change [1]: inactive: -0.075
log2 fold change [2]: inactive: 0.045
log2 fold change [3]: inactive: 0.012
log2 fold change [4]: inactive: -0.004
log2 fold change [5]: inactive: 0.006

MRAS (UniProt O14807)
log2 fold change [1]: inactive: -0.096
log2 fold change [2]: inactive: 0.234
log2 fold change [3]: inactive: 0
log2 fold change [4]: inactive: 0.04
log2 fold change [5]: inactive: -0.067

MOGS (UniProt Q13724)
log2 fold change [1]: inactive: -0.011
log2 fold change [2]: inactive: 0.094
log2 fold change [3]: inactive: -0.005
log2 fold change [4]: inactive: -0.011
log2 fold change [5]: inactive: -0.016

MGAT4B isoform 3 (UniProt Q9UQ53)
log2 fold change [1]: inactive: 0.027
log2 fold change [2]: inactive: 0.097
log2 fold change [3]: inactive: 0.013
log2 fold change [4]: inactive: 0.097
log2 fold change [5]: inactive: 0.073

MLF2 (UniProt Q15773)
log2 fold change [1]: inactive: 0.021
log2 fold change [2]: inactive: -0.12
log2 fold change [3]: inactive: 0.02
log2 fold change [4]: inactive: -0.061
log2 fold change [5]: inactive: -0.05

MKRN1 (UniProt Q9UHC7)
log2 fold change [1]: inactive: 0.086
log2 fold change [2]: inactive: -0.243
log2 fold change [3]: inactive: 0.087
log2 fold change [4]: inactive: -0.003
log2 fold change [5]: inactive: -0.025

MRPL2 (UniProt Q5T653)
log2 fold change [1]: inactive: 0.16
log2 fold change [2]: inactive: 0.143
log2 fold change [3]: inactive: 0.005
log2 fold change [4]: inactive: -0.022

MRPL19 (UniProt P49406)
log2 fold change [1]: inactive: 0
log2 fold change [2]: active: -0.311
log2 fold change [3]: inactive: 0.012
log2 fold change [4]: inactive: 0.027
log2 fold change [5]: inactive: -0.054
